Results on 1 substance are retold here after article PMC12152034.

Sequences of proteins named here, by UniProt entry; tags and fusion partners are left off.
UniProt Q9H4L4: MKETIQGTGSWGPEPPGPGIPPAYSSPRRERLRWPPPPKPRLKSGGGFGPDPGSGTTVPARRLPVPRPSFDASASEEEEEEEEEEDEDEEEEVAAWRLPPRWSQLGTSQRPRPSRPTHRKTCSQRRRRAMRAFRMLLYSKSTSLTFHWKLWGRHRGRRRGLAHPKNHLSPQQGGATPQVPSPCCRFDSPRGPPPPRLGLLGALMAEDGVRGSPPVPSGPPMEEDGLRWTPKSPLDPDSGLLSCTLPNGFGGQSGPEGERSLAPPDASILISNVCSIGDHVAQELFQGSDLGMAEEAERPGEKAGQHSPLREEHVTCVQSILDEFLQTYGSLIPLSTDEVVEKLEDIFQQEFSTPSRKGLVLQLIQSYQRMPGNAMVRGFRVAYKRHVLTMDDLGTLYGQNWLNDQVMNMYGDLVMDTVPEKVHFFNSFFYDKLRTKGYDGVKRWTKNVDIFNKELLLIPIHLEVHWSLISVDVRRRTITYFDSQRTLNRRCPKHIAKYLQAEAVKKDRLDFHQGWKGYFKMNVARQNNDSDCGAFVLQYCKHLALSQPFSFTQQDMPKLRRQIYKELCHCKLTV
UniProt Q07687: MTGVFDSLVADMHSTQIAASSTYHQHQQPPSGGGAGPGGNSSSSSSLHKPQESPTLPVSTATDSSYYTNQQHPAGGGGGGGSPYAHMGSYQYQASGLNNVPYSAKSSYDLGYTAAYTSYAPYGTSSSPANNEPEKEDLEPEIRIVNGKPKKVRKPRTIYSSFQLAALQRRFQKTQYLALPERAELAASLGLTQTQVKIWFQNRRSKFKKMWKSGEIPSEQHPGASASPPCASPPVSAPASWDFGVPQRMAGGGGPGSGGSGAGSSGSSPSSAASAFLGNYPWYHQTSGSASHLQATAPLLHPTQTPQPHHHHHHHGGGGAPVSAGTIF

This experiment concerns the target SENP3 (human (endogenous in BMSCs)) (UniProt Q9H4L4). As to the kind of experiment: co-IP; BMSC lysate incubated with anti-SENP3 or anti-DLX2 antibody at 4 °C overnight, protein A&G beads for 4 h, Western blot. (In general: A western blot detects proteins with antibodies after separation by electrophoresis.)

No constants are given. Whether binding was seen depends on the method and setting. Binding seen in cells or lysates may run through a third protein. Some results given as binding are weak or reduced against the parent protein; the word gives no strength.

For the substance DLX2 (from UniProt Q07687 1-328), the binding entry is given as “binds”.
